# Measurements as given in the supplement of paper PMC12819154, “High-throughput peptide-centric local stability assay extends protein–ligand identification to membrane proteins, tissues and bacteria” (Nature Structural & Molecular Biology, 2025).
# By UniProt entry, the sequences of proteins in these tests, tags left out. Where a name states a change or a piece, a line headed by the entry shows the natural chain unless it says otherwise.
# UniProt Q8R3G1: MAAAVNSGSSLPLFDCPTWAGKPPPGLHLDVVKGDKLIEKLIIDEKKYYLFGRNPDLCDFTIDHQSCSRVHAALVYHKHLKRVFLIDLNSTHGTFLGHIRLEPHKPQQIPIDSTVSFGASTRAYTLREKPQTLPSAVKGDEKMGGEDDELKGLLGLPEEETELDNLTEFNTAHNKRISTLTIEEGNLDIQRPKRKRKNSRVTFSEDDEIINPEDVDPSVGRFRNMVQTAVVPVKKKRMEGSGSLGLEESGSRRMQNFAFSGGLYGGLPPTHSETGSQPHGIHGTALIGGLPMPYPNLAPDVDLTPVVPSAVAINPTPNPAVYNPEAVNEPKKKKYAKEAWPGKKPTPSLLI
# UniProt Q8R3P7: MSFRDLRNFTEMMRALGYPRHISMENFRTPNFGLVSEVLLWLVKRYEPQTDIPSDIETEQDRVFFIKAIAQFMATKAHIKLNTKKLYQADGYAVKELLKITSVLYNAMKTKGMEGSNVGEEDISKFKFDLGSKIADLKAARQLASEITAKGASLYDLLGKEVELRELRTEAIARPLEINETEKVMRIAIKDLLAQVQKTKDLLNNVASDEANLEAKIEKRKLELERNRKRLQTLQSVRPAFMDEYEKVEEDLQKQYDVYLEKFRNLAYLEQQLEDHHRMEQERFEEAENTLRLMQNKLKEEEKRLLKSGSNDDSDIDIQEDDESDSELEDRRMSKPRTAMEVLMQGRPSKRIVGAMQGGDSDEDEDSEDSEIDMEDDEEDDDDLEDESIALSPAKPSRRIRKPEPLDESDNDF
# UniProt Q8VCT9: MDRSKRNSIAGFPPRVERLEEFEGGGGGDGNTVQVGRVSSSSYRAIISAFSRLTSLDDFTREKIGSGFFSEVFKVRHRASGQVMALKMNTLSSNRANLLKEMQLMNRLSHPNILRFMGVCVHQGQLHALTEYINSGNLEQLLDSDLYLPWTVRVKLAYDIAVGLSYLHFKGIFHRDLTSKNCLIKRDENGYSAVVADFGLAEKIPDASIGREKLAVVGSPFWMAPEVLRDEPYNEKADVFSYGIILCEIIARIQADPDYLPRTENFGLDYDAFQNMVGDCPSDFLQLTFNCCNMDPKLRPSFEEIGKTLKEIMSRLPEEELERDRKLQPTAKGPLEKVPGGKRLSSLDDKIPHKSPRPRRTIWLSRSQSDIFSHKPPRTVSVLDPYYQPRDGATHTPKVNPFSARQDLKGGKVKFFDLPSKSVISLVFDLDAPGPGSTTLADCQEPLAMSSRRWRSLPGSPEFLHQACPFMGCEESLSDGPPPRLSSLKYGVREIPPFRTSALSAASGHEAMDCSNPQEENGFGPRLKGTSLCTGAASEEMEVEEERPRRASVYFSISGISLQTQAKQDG
# UniProt Q8VDP3: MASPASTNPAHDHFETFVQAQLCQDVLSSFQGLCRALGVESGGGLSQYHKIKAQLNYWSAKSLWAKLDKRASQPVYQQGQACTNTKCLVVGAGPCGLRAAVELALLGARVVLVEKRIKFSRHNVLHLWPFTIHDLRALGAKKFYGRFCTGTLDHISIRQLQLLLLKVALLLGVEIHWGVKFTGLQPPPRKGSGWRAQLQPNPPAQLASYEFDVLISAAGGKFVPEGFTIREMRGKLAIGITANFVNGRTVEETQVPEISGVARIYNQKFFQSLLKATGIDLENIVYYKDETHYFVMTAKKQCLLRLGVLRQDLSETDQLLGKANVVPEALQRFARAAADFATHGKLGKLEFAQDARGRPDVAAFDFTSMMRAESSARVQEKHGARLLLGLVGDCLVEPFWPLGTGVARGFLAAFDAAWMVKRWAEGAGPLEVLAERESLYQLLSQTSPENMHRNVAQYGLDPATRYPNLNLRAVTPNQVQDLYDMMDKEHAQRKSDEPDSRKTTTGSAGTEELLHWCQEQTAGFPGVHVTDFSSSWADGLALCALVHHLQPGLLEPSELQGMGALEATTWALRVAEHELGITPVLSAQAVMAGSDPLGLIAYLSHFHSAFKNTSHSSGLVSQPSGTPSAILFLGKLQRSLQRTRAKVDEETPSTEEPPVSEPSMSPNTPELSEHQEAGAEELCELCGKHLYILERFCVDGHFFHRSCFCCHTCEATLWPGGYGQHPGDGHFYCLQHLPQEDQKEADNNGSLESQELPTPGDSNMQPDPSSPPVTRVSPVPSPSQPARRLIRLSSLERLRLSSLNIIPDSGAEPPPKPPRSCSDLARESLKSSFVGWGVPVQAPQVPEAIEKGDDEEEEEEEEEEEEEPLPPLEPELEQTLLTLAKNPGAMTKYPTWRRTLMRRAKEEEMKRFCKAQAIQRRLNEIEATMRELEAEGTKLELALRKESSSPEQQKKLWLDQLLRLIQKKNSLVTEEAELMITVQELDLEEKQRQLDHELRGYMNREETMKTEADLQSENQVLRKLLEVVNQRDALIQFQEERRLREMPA
# UniProt Q8R5A0: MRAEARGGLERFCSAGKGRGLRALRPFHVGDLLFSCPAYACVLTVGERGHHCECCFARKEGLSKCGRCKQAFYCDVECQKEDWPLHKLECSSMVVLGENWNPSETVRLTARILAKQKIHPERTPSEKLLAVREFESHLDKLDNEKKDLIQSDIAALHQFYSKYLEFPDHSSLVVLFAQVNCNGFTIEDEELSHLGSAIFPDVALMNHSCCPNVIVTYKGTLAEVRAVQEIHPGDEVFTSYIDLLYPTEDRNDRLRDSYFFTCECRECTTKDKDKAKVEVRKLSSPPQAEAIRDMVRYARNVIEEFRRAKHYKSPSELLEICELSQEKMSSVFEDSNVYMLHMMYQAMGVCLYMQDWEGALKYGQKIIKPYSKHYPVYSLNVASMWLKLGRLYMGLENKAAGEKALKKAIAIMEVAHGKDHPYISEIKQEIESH
# UniProt Q8R370: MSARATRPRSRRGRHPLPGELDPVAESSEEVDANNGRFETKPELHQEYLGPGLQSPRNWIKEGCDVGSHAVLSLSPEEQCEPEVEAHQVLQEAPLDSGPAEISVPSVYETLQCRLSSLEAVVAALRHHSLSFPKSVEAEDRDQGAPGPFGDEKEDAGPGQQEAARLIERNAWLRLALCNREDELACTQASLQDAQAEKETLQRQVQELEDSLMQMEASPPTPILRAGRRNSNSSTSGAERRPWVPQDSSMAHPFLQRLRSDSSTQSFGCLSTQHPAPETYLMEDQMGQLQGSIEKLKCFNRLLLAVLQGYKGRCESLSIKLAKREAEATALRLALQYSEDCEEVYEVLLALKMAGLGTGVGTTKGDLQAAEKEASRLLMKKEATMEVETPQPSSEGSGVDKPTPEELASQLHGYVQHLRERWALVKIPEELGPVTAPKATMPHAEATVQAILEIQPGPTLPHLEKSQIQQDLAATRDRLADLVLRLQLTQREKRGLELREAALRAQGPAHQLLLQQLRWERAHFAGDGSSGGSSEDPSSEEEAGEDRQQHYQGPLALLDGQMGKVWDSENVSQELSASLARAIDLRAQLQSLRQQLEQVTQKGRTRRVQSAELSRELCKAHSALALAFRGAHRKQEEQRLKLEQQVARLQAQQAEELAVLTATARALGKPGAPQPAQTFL
# UniProt Q8VEB2: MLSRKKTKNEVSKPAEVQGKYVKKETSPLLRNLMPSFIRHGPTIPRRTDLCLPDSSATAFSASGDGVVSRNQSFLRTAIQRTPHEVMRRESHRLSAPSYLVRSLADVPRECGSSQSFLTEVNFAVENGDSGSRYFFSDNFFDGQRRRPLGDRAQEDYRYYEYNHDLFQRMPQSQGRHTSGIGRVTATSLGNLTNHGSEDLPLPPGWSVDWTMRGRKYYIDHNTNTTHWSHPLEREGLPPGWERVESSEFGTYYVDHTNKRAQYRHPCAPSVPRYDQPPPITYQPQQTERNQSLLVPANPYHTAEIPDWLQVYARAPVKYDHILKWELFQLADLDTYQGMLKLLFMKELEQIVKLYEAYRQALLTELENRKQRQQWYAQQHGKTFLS
# UniProt Q8R3B1: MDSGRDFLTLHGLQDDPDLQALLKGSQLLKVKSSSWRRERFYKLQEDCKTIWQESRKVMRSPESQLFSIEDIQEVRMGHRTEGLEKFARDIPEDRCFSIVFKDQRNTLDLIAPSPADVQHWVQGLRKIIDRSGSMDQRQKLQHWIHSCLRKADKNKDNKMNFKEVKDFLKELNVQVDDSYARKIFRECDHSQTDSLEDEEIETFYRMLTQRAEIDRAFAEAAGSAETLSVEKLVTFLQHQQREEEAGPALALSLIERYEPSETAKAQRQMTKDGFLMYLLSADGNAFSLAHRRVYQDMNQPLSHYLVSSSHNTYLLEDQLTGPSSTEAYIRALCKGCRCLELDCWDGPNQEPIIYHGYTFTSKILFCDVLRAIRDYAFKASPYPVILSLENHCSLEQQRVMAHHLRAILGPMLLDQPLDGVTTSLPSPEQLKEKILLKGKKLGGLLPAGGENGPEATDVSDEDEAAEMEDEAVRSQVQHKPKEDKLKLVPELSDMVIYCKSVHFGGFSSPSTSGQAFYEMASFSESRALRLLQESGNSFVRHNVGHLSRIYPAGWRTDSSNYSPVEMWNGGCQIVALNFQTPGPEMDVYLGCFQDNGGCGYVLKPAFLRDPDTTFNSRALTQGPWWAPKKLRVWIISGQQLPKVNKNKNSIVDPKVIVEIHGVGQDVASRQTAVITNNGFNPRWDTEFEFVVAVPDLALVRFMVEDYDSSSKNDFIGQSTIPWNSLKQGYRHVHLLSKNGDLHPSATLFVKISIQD
# UniProt Q8R3P0: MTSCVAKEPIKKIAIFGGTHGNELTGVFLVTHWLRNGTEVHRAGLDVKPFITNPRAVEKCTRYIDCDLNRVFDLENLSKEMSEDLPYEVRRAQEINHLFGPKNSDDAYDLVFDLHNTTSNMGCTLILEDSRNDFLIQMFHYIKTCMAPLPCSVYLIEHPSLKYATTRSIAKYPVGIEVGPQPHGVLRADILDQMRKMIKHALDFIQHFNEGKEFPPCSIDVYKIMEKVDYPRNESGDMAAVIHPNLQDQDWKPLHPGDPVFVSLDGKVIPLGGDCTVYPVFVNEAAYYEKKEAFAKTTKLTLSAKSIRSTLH
# UniProt Q8R5H6: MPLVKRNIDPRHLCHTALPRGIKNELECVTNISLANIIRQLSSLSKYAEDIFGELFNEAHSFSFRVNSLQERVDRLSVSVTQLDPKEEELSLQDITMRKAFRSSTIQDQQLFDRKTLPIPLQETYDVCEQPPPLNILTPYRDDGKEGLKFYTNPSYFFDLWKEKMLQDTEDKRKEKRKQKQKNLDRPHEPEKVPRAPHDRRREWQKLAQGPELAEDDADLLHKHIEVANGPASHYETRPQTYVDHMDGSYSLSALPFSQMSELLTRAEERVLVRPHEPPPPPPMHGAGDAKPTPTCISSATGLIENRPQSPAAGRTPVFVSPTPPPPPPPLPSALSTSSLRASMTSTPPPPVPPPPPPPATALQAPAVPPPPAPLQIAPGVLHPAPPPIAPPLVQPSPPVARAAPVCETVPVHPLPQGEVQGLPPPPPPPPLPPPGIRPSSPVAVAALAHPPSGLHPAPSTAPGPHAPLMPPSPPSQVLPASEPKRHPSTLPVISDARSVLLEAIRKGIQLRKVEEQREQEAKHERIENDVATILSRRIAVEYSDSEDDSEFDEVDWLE
# UniProt Q8VBX0: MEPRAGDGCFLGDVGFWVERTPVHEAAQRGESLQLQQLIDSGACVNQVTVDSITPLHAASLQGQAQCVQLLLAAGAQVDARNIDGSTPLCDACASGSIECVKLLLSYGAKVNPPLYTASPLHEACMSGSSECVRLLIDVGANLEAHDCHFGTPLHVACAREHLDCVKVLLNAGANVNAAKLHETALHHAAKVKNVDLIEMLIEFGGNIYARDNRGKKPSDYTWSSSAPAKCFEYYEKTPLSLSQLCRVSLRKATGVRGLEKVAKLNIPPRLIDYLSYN
# The list shows a part of the results. Most values lie at the level of the controls, where differences are scatter.
# Compound: CN[C@@H]1C[C@H]2O[C@@](C)([C@@H]1OC)n1c3ccccc3c3c4c(c5c6ccccc6n2c5c31)C(=O)NC4 [staurosporine]
# Assay: log2 fold change of tryptic peptide abundance, ligand vs vehicle (limited proteolysis) (log2 ratio); higher = more trypsin-susceptible (destabilized)
# Settings: ligand concentration: 20 uM; sample: mouse liver crude lysate; replicate design: treated separately
row,Target,log2 fold change
1,"UniProt Q8R3G1 (peptide sequence: VFLIDLNSTHGTFLGHIR, peptide start residue: 83)",-0.398
2,"UniProt Q8R3P7 (peptide sequence: TAMEVLMQGRPSKR, peptide start residue: 338)",0.283
3,"UniProt Q8VCT9 (peptide sequence: LTSLDDFTR, peptide start residue: 53)",-0.204
4,"UniProt Q8VDP3 (peptide sequence: ELEAEGTKLELALRK, peptide start residue: 931)",-0.329
5,"UniProt Q8R5A0 (peptide sequence: LSSPPQAEAIR, peptide start residue: 282)",0.0514
6,"UniProt Q8R370 (peptide sequence: EAEATALR, peptide start residue: 325)",-0.315
7,"UniProt Q8VEB2 (peptide sequence: QQWYAQQHGK, peptide start residue: 373)",-0.317
8,"UniProt Q8R3B1 (peptide sequence: CFSIVFKDQR, peptide start residue: 96)",-0.265
9,"UniProt Q8R3P0 (peptide sequence: AGLDVKPFITNPR, peptide start residue: 43)",0.188
10,"UniProt Q8R5H6 (peptide sequence: NLDRPHEPEKVPR, peptide start residue: 183)",-0.169
11,"UniProt Q8VBX0 (peptide sequence: LHETALHHAAK, peptide start residue: 181)",0.318
